Here are results for one molecule from US20120107364A1 (ACTGEN, published 2012).

These are yes or no findings as the source states them, for the method shown. Some binding calls cover weakened binding; strength is not graded here.

This test deals with T1, PODXL2, positions 1 to 428 (full-length extracellular region) (human) (UniProt O00592).
T1 sequence: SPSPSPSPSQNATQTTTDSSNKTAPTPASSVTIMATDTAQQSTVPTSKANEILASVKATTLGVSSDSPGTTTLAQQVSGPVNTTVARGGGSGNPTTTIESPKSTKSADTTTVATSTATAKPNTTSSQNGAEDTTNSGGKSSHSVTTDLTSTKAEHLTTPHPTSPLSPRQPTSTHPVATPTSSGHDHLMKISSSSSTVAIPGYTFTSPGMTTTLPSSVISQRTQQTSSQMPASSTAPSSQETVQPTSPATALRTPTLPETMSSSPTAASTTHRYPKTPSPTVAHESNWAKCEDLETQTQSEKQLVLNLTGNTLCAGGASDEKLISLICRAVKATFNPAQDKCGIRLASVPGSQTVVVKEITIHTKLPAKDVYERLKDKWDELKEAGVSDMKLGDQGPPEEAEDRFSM
The test can be described thus: flow cytometry on Ba/F3 cells expressing the truncated PODXL2. A general note: A flow cytometer gives signals particle by particle.

B1: ACT36-27-5D1 antibody (antibody, V domains shown)
VH: EVQLQQSGPELVKPGASVKMSCKASGYTFTSYVMHWVKQKPGQGLEWIGYIHPYNDGIKYNEKFKGKATLTSDKSSSTAYMDLSSLTSEDSAVYYCARSWDWYFDVWAAGTTVTVSS
VL: QIVLTQSPAIMSASPGEKVSMTCSASSSVSYMHWYQQKSGTSPKRWIYDTSKLASGVPARFSGSGSGTSYSLTISSMEAEDAATYYCLQWSSNPPTFGGGTKLE
notes: also called anti-PODXL2 antibody ACT36-27-5D1; anti-ACT36-27-5D1 monoclonal antibody
B1: the binding entry is “binds”.
